Source: PubChem BioAssay AID588590 (National Center for Advancing Translational Sciences (NCATS), 2011)
About 4,000 (1%) of roughly 390,000 compounds were called active. This list was built around the results that the source calls inconclusive (neither active nor inactive); the mix of calls is not that of the screen. The call rests on the fitted dose curve; in most records, active means well fitted inhibition curve with a large enough effect; inconclusive means small, poorly fitted or top-dose-only effect, or another doubt; inactive means no such curve, though single readings can be large or run the other way. Potencies beside an inconclusive call are fits to weak or partial responses and may not hold up.

Amino acid sequences for entries named in this document (tags omitted). A change or cut given only in a name is not applied to a line headed by its entry.
UniProt Q9UNA4: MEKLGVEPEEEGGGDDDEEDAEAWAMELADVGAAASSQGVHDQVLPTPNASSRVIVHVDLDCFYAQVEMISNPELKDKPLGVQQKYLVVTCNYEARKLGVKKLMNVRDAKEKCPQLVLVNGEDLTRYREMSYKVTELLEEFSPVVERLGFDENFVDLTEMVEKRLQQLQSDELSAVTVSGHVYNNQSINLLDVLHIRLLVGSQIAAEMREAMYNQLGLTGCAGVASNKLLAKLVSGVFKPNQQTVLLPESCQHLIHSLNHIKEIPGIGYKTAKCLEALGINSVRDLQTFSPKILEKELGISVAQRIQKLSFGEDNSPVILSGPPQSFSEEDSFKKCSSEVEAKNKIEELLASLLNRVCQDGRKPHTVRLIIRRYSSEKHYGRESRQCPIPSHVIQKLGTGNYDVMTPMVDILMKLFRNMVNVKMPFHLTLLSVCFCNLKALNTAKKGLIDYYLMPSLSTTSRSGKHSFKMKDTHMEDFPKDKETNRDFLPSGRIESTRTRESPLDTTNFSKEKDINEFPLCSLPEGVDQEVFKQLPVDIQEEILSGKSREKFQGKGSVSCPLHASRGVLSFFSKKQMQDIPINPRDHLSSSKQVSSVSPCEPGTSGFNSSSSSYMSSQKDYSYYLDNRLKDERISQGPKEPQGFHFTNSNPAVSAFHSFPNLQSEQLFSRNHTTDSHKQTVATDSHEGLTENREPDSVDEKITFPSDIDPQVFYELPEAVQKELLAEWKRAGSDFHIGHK

These compounds were tested against DNA polymerase iota (Homo sapiens) (UniProt Q9UNA4) (assay: qHTS for Inhibitors of Polymerase Iota). Conditions: Pol iota fluorescent replication assay, 10 min; series mostly up to 115 µM; activity, negative = inhibition: at the top concentration.
Procedure, shortened: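 Fluorescent replication assay read twice, at 0 min and 10 min after adding 50 nM (final) substrate. Enzyme (10 nM) and compounds were first incubated 15 min at room temperature; enzyme-free buffer wells were negative controls.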
Potency means the concentration at half of the fitted maximal effect.

| SMILES | activity, negative = inhibition | Potency |
| --- | --- | --- |
| CCN(CC)S(=O)(=O)c1cccc(C(=O)N[C@H](C(=O)Nc2nc3ccc(F)cc3s2)C(C)C)c1 | inactive: 12.3% |  |
| COc1ccccc1N1C(=O)N(C(C)=O)C2C1Nc1ccccc1N2C (configuration not stated) |  | inconclusive: 31.6 µM [inhibitor, partial curve, poor fit] |
| Cc1cccc(/C=N/NC(=O)CC(=O)NCCc2ccccc2)c1 | inactive: 27.1% |  |
| COc1cccc(/C=N/Nc2ccc(C(=O)O)cc2)c1O | inactive: -7.96% |  |
| O=S(=O)(Nc1ccc(N2CCCCC2)cc1)c1ccc(F)c(F)c1 |  | inconclusive: 79.4 µM [inhibitor, single point] |
| O=C1C(Cl)=C(Oc2ccccc2)C(=O)c2ccccc21 |  | active: 1.78 µM |
| Cc1ccnc2nc(C(=O)Nc3nc(-c4ccccn4)cs3)nn12 |  | active: 50.1 µM |
| COc1cc(SC)ccc1C(=O)Nc1ccc2c(c1)CCC2 | inactive: -22.5% |  |
| CCc1cccc(NC(=O)Cn2c(=O)n(CC(=O)NCCc3ccccc3)c(=O)c3ccccc32)c1 |  | inconclusive: 89.1 µM [inhibitor, partial curve, poor fit] |
| O=C1OCCC1Sc1nc2cc(Cl)ccc2n1Cc1ccccc1 (configuration not stated) |  | inconclusive: 44.7 µM [inhibitor, partial curve] |
| CC(CCc1ccccc1)NC(=O)COC(=O)c1ccc(S(C)(=O)=O)c([N+](=O)[O-])c1 (configuration not stated) |  | inconclusive: 25.1 µM [inhibitor, partial curve] |
| COc1cc(CN2CCN(c3ccccc3F)CC2)cc(OC)c1O |  | inconclusive: 39.8 µM [inhibitor, single point] |
| COc1ccc(CN(C(=O)c2nsc(Cl)c2Cl)C(C(=O)NC2CCCCC2)c2ccc(OC)cc2)cc1 (configuration not stated) |  | inconclusive: 35.5 µM [inhibitor, partial curve, poor fit] |
| O=C(CCC(=O)c1cccs1)NNC(=O)c1ccccc1O |  | inconclusive: 25.1 µM [inhibitor, full curve, poor fit] |
| Cc1ccc(NC2c3ncccc3C(=O)N2c2ccccc2C)cc1C (configuration not stated) |  | active: 56.2 µM |
| COc1ccc(NC(=O)CN(c2ccc(Cl)cc2)S(C)(=O)=O)cc1OC | inactive: 14.7% |  |
| CN(Cc1cnccn1)C(=O)C1CCC(=O)N(CCc2ccc(Cl)cc2)C1 (configuration not stated) |  | inconclusive: 79.4 µM [inhibitor, single point] |
| Cc1ccc(OCCNC(=O)CCc2nc3sc4c(c3c(=O)[nH]2)CCCC4)cc1 |  | inconclusive: 56.2 µM [inhibitor, partial curve, poor fit] |
| Cc1ccc(S(=O)(=O)c2nc(-c3ccccc3)oc2SCC(=O)NCC2CCCO2)cc1 (configuration not stated) |  | inconclusive: 31.6 µM [inhibitor, single point] |
| CC(=O)c1ccc(NC(=O)CCCN2C(=O)COc3ccc(C)cc32)cc1 |  | inconclusive: 2.82 µM [inhibitor, full curve] |
| Oc1ccc(/C=N/NC(=S)N/N=C/c2ccc(O)cc2)cc1 |  | inconclusive: 31.6 µM [inhibitor, partial curve, poor fit] |

| SMILES | activity, negative = inhibition | Potency |
| --- | --- | --- |
| Cc1nn(-c2ccccc2)c(Cl)c1C(=O)OCC(=O)NCCc1ccccc1 |  | inconclusive: 100 µM [inhibitor, single point] |
| Cc1nnc(-c2ccccc2)nc1N(C)C | inactive: 115% |  |
| CS(=O)(=O)N1Cc2ccccc2CC1C(=O)OCC(=O)NCc1ccccc1 (configuration not stated) |  | active: 79.4 µM |
| COc1cccc(CNc2nc3ccccc3n2CCN2CCCCC2)c1 |  | inconclusive: 126 µM [inhibitor, partial curve, poor fit] |
| Cc1cc(C(=O)O)c2ccccc2n1 |  | inconclusive: 56.2 µM [inhibitor, partial curve, poor fit] |
| CC(OC(=O)c1cc(=O)[nH]c2ccccc12)c1ccccc1 (configuration not stated) | inactive: -15.1% |  |
| COc1cc(OC)cc(C(=O)N[C@H](C(=O)OCC(=O)Nc2sccc2C#N)C(C)C)c1 |  | inconclusive: 20 µM [inhibitor, full curve] |
| CC1(C)CC(=O)C=C(NCCN2CCN(C(=S)Nc3ccccc3)CC2)C1 |  | inconclusive: 10 µM [inhibitor, partial curve, poor fit] |
| O=C(c1ccccc1)C(CN1CCCCC1)c1ccccc1 (configuration not stated) |  | inconclusive: 12.6 µM [inhibitor, full curve, poor fit] |
| COCCCNc1nc2c(-c3cccc(C)c3)nnn2c2ccc(Cl)cc12 |  | inconclusive: 22.4 µM [inhibitor, partial curve] |
| CCCCC1(C)NC(=O)N(CC(=O)Nc2cc(S(=O)(=O)N3CCOCC3)ccc2Cl)C1=O (configuration not stated) |  | inconclusive: 70.8 µM [inhibitor, partial curve] |
| CCc1nc(OCCN(C)C)c2oc3ccccc3c2n1 |  | inconclusive: 15.8 µM [inhibitor, single point] |
| Cc1cc(C)cc(NS(=O)(=O)c2ccc3[nH]cc(C(=O)N4CCc5ccccc54)c(=O)c3c2)c1 |  | inconclusive: 112 µM [inhibitor, partial curve, poor fit] |
| CC(=O)N(CCc1ccccc1C)Cc1cc2cc3c(cc2[nH]c1=O)OCO3 |  | inconclusive: 11.2 µM [inhibitor, partial curve, poor fit] |
| O=C(NCC1CCCO1)c1onc(CSc2cccc3ccccc23)c1C(=O)O (configuration not stated) |  | inconclusive: 2.51 µM [inhibitor, full curve, poor fit] |
| CCOc1ccccc1Nc1nnc(-c2cc3cc(OC)ccc3oc2=O)s1 |  | inconclusive: 89.1 µM [inhibitor, single point] |
| CCN(Cc1nc(-c2ccc(OC)cc2)oc1C)S(=O)(=O)c1ccc(C)cc1 | inactive: 35.8% |  |
| N#Cc1ccsc1NC(=O)CSc1nncs1 |  | inconclusive: 50.1 µM [inhibitor, partial curve, poor fit] |
| CN(Cc1ccco1)C(=O)CN1C(=O)NC2(CCCCC2)C1=O |  | inconclusive: 50.1 µM [inhibitor, partial curve, poor fit] |
| CCOC(=O)C(=NCCCN(C)C)NNc1ccc(Br)cc1 |  | inconclusive: 25.1 µM [inhibitor, partial curve, poor fit] |
| Cc1cc(C)nc(SCc2ccc(C(=O)N/N=C/c3cccc(O)c3O)cc2)n1 |  | inconclusive: 35.5 µM [inhibitor, partial curve, poor fit] |

Random excerpt: two entries already listed, in no set order.

| SMILES | activity, negative = inhibition | Potency |
| --- | --- | --- |
| O=C(NCC1CCCO1)c1onc(CSc2cccc3ccccc23)c1C(=O)O (configuration not stated) |  | inconclusive: 2.51 µM [inhibitor, full curve, poor fit] |
| COc1ccc(NC(=O)CN(c2ccc(Cl)cc2)S(C)(=O)=O)cc1OC | inactive: 14.7% |  |
